This note sets out measurements from PubChem BioAssay AID2685 (National Center for Advancing Translational Sciences (NCATS), 2010).

The other results are listed elsewhere or left out. Further columns of the screen follow, without active or inactive calls. Most of these compounds were active or inconclusive in the main read-out, so they are no random draw. The note in brackets gives the kind of curve behind each potency; many fits are weak.

This assay can be described thus: qHTS Assay for Lipid Storage Modulators in Drosophila S3 Cells.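 As to cell number change: cells counted by Cell Tracker Red CMTPX staining in the red channel.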 The following applies: BODIPY lipid droplet fluorescence, 18-24 h; for cell number change: measured here: cell count max response, cells fed with added oleic acid. Summed up: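 Drosophila S3 cells loaded with oleic acid (400 uM, as added) and compounds at several concentrations; lipid droplets imaged by 488-nm laser-scanning cytometry, 500–530 nm intensity and object ratio to cell channel. Percent activity normalized to 20 uM Triacsin C.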
For orientation: qHTS replaces the single test concentration by a dilution series.

[1] abbreviates: measured here: lipid fluorescence (Fed channel) AC50, cells fed with added oleic acid.
Where [2] appears, read: measured here: cell number channel AC50, cells fed with added oleic acid.

Broadly, the AC50 is the concentration giving half of the maximal activity seen. `NC(=O)C1(NC(=O)[C@@H]2CC3(CC(c4cccc(NC(=O)[C@@H]5CCC(=O)N5)c4)=NO3)CN2C(=O)Cc2ccc(C(F)(F)F)cc2)CC1` (stereo partly specified): the cell number change is 13.9%. Further, the AC50 under setting [1] is 146 nM [rising, full curve, poor fit].

With `O=S(=O)(Nc1cccc(S(=O)(=O)N2CCOCC2)c1)c1ccc(Cl)s1`, the cell number change is -8.2%. Besides, the half-maximal activity concentration (AC50) under setting [1] was 92 nM [falling, full curve, poor fit].

`CCN(CC)S(=O)(=O)c1ccc(C(=O)Nc2ncn(Cc3ccccc3)n2)cc1`: the cell number change was -2.53%. Besides, the concentration at half-maximal activity (AC50) under setting [2] is 231 nM [rising, single point].

As for `CCCc1cc(=O)[nH]c(SCC(=O)Nc2ccccc2C#N)n1`, the cell number change stood at 10.3%. Moreover, under setting [1], the half-maximal activity concentration (AC50) was 103 nM [falling, full curve, poor fit].

For `CCOc1cc(CNCCc2ccc(S(N)(=O)=O)cc2)ccc1OCc1ccc(Cl)cc1`, the cell number change was -47%. For the same compound, under setting [2], the AC50 is 32600 nM [falling, single point]. Besides, the AC50 under setting [1] was 32600 nM [falling, single point].

On to `Cc1cc(NC(=O)CS(=O)(=O)c2ccc(Cl)cc2)no1`, for which the AC50 under setting [1] is 116 nM [falling, full curve, poor fit].

`Cc1cccn2c(=O)c3cc(C(=O)NCCc4ccccc4)c(=N)n(CC4CCCO4)c3nc12` (stereo unspecified): the cell number change worked out at 2.42%. The concentration at half-maximal activity (AC50) under setting [1] was 4610 nM [falling, partial curve, poor fit].

Turning to `O=C(Cn1c(N2CCN(C/C=C/c3ccccc3)CC2)nc2ccccc21)c1ccccc1`, the cell number change came out at 4.69%. Also, the half-maximal activity concentration (AC50) under setting [2] is 731 nM [rising, single point]. Moreover, the AC50 under setting [1] was 651 nM [rising, single point].

On to `CCOCCn1c(SCC)nc2c1c(=O)[nH]c(=O)n2C`, for which, under setting [1], the concentration at half-maximal activity (AC50) is 25900 nM [falling, single point].

In the case of `Cc1cccc(CCN2C(N(C)C)=NC[C@@H]2CC(C)C)c1`, the cell number change was -16.5%. For the same compound, the half-maximal activity concentration (AC50) under setting [1] was 29100 nM [rising, single point].

Turning to `O=C1CCCN1CCCNC(=S)Nc1ccc(F)cc1`, the cell number change was -35%. Under setting [2], the half-maximal activity concentration (AC50) was 32600 nM [falling, single point].

Consider `COc1cc(CNC(C)(C)CO)cc(Br)c1OCc1ccccc1`, for which the cell number change came to 7.69%. Further, the concentration at half-maximal activity (AC50) under setting [2] was 4.61 nM [falling, full curve, poor fit]. Moreover, under setting [1], the AC50 is 6510 nM [falling, partial curve, poor fit].

In the case of `Fc1ccccc1-c1n[nH]c(=S)n1/N=C/c1c[nH]c2ccccc12`, the concentration at half-maximal activity (AC50) under setting [1] was 2590 nM [rising, full curve].

Regarding `O=C1CS/C(=N/N=C/c2ccccc2OS(=O)(=O)c2ccccc2)N1`, the cell number change turned out to be 4.49%. Further, the AC50 under setting [1] was 4110 nM [rising, full curve].

For `CCc1nc(N=Nc2c(O)[nH]c3ccccc23)c2c3c(sc2n1)CCC3`, the cell number change was -43.4%. Moreover, the AC50 under setting [2] was 1300 nM [falling, full curve]. In addition, the AC50 under setting [1] was 184 nM [rising, full curve, poor fit].
